# Laboratory results taken from the supplement of paper PMC8728848.
# The list shows a part of the results.
# Key:
# Test in all cases: glycan array binding signal (z-score within array); higher = stronger binding
# Conditions in all cases: glycan notation: IUPAC condensed, linker removed
# [1] = target: GalNAc(b1-4)GlcNAc(b1-2)Man
# Procedure, shortened: (§1)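 Negative Z-scores can be read as non-binding. The Z-score is calculated within each array and then averaged across arrays of one protein sequence at different concentrations or buffers and across linkers. Arrays, 3228 in all, were curated from the Consortium for Functional Glycomics database and kept only where the protein sequence was available.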
# [2] = target: GalNAc(b1-4)GlcNAc(b1-2)Man(a1-3)[GalNAc(b1-4)GlcNAc(b1-2)Man(a1-6)]Man(b1-4)GlcNAc(b1-4)GlcNAc
# Procedure, shortened: as §1
# [3] = target: GalNAc(b1-4)GlcNAc(b1-3)GalNAc(b1-4)GlcNAc
# Procedure, shortened: as §1
# GalNAc(b1-4)GlcNAc6S = target: GalNAc(b1-4)GlcNAc6S
# Procedure, shortened: as §1
# GalNAc(b1-6)GalNAc = target: GalNAc(b1-6)GalNAc
# Procedure, shortened: as §1
# GalNAc3S(b1-4)GlcNAc = target: GalNAc3S(b1-4)GlcNAc
# Procedure, shortened: as §1
# GalNAc3S(b1-4)GlcNAc3S = target: GalNAc3S(b1-4)GlcNAc3S
# Procedure, shortened: as §1
# [4] = target: GalNAc3S(b1-4)[Fuc(a1-3)]GlcNAc
# Procedure, shortened: as §1
# GalNAc4S6S(b1-4)GlcNAc = target: GalNAc4S6S(b1-4)GlcNAc
# Procedure, shortened: as §1
# GalNAc6S(b1-4)GlcNAc = target: GalNAc6S(b1-4)GlcNAc
# Procedure, shortened: as §1
# Glc(a1-4)Glc = target: Glc(a1-4)Glc
# Procedure, shortened: as §1
# [5] = target: Glc(a1-4)Glc(a1-4)Glc(a1-4)Glc
# Procedure, shortened: as §1
# Glc(a1-6)Glc(a1-6)Glc = target: Glc(a1-6)Glc(a1-6)Glc
# Procedure, shortened: as §1
# [6] = target: Glc(a1-6)Glc(a1-6)Glc(a1-6)Glc
# Procedure, shortened: as §1
# Glc(b1-4)Glc = target: Glc(b1-4)Glc
# Procedure, shortened: as §1
# Glc(b1-6)Glc = target: Glc(b1-6)Glc
# Procedure, shortened: as §1
# GlcA(b1-3)Gal = target: GlcA(b1-3)Gal
# Procedure, shortened: as §1
# GlcA(b1-3)GlcNAc = target: GlcA(b1-3)GlcNAc
# Procedure, shortened: as §1
# GlcA(b1-6)Gal = target: GlcA(b1-6)Gal
# Procedure, shortened: as §1
# [7] = target: GlcA3S(b1-3)Gal(b1-4)GlcNAc(b1-2)Man
# Procedure, shortened: as §1
# [8] = target: GlcA3S(b1-3)Gal(b1-4)GlcNAc(b1-3)Gal(b1-4)Glc
# Procedure, shortened: as §1
# [9] = target: GlcNAc(a1-3)Gal(b1-4)GlcNAc
# Procedure, shortened: as §1
# [10] = target: GlcNAc(a1-4)Gal(b1-3)GlcNAc
# Procedure, shortened: as §1
# [11] = target: GlcNAc(a1-4)Gal(b1-4)GalNAc
# Procedure, shortened: as §1
# [12] = target: GlcNAc(a1-4)Gal(b1-4)GlcNAc
# Procedure, shortened: as §1
# [13] = target: GlcNAc(a1-4)Gal(b1-4)GlcNAc(b1-3)Gal(b1-4)Glc
# Procedure, shortened: as §1
# [14] = target: GlcNAc(a1-4)Gal(b1-4)GlcNAc(b1-3)Gal(b1-4)GlcNAc
# Procedure, shortened: as §1
# [15] = target: GlcNAc(a1-4)Gal(b1-4)GlcNAc(b1-3)Gal(b1-4)GlcNAc(b1-3)Gal(b1-4)GlcNAc
# Procedure, shortened: as §1
# [16] = target: GlcNAc(a1-4)Gal(b1-4)GlcNAc(b1-3)Gal(b1-4)[Fuc(a1-3)]GlcNAc(b1-3)Gal(b1-4)[Fuc(a1-3)]GlcNAc
# Procedure, shortened: as §1
# [17] = target: GlcNAc(a1-6)Gal(b1-4)GlcNAc
# Procedure, shortened: as §1
# [18] = target: GlcNAc(b1-2)Gal(b1-3)GalNAc
# Procedure, shortened: as §1
# [19] = target: GlcNAc(b1-2)Man(a1-3)[GlcNAc(b1-2)Man(a1-6)]Man(b1-4)GlcNAc(b1-4)GlcNAc
# Procedure, shortened: as §1
# [20] = target: GlcNAc(b1-2)Man(a1-3)[GlcNAc(b1-2)Man(a1-6)]Man(b1-4)GlcNAc(b1-4)[Fuc(a1-6)]GlcNAc
# Procedure, shortened: as §1
# [21] = target: GlcNAc(b1-2)Man(a1-3)[GlcNAc(b1-4)][GlcNAc(b1-2)Man(a1-6)]Man(b1-4)GlcNAc(b1-4)GlcNAc
# Procedure, shortened: as §1
# [22] = target: GlcNAc(b1-2)Man(a1-3)[GlcNAc(b1-4)][GlcNAc(b1-2)Man(a1-6)]Man(b1-4)GlcNAc(b1-4)[Fuc(a1-6)]GlcNAc
# Procedure, shortened: as §1
# [23] = target: GlcNAc(b1-2)[GlcNAc(b1-4)]Man(a1-3)[GlcNAc(b1-2)Man(a1-6)]Man(b1-4)GlcNAc(b1-4)GlcNAc
# Procedure, shortened: as §1
# [24] = target: GlcNAc(b1-2)[GlcNAc(b1-4)]Man(a1-3)[GlcNAc(b1-4)][GlcNAc(b1-2)Man(a1-6)]Man(b1-4)GlcNAc(b1-4)GlcNAc
# Procedure, shortened: as §1
# [25] = target: GlcNAc(b1-2)[GlcNAc(b1-4)]Man(a1-3)[GlcNAc(b1-4)][GlcNAc(b1-2)[GlcNAc(b1-6)]Man(a1-6)]Man(b1-4)GlcNAc(b1-4)GlcNAc
# Procedure, shortened: as §1
# [26] = target: GlcNAc(b1-2)[GlcNAc(b1-4)]Man(a1-3)[GlcNAc(b1-4)][GlcNAc(b1-2)[GlcNAc(b1-6)]Man(a1-6)]Man(b1-4)GlcNAc(b1-4)[Fuc(a1-6)]GlcNAc
# Procedure, shortened: as §1
# [27] = target: GlcNAc(b1-2)[GlcNAc(b1-6)]Man(a1-6)[GlcNAc(b1-2)Man(a1-3)]Man(b1-4)GlcNAc(b1-4)GlcNAc
# Procedure, shortened: as §1
# [28] = target: GlcNAc(b1-2)[GlcNAc(b1-6)]Man(a1-6)[GlcNAc(b1-2)Man(a1-3)]Man(b1-4)GlcNAc(b1-4)[Fuc(a1-6)]GlcNAc
# Procedure, shortened: as §1
# [29] = target: GlcNAc(b1-2)[GlcNAc(b1-6)]Man(a1-6)[GlcNAc(b1-4)][GlcNAc(b1-2)Man(a1-3)]Man(b1-4)GlcNAc(b1-4)GlcNAc
# Procedure, shortened: as §1
# GlcNAc(b1-3)Fuc = target: GlcNAc(b1-3)Fuc
# Procedure, shortened: as §1
# GlcNAc(b1-3)Gal = target: GlcNAc(b1-3)Gal
# Procedure, shortened: as §1
# [30] = target: GlcNAc(b1-3)Gal(b1-3)GalNAc
# Procedure, shortened: as §1
binder,measurement,setting,value
CM2 (Cordyceps militaris) (protein) MEIAEQNVGKSCAIVNLIPPKEGSNIWTAKQVTIARNLPPNRGTGRHQIDWSFGPVKVTGYVDTTNWEIGVTVSIMGIDLGTVYGNLRDGVVLNVDLFLAKGQVRFYLKNGNEVWVHLSVEIRFDGKFEGDYKIITV,glycan array binding signal (z-score),[1],-0.347
same,glycan array binding signal (z-score),[2],0.183
same,glycan array binding signal (z-score),[3],0.376
same,glycan array binding signal (z-score),GalNAc(b1-4)GlcNAc6S,0.295
same,glycan array binding signal (z-score),GalNAc(b1-6)GalNAc,-0.35
same,glycan array binding signal (z-score),GalNAc3S(b1-4)GlcNAc,-0.054
same,glycan array binding signal (z-score),GalNAc3S(b1-4)GlcNAc3S,1.13
same,glycan array binding signal (z-score),[4],0.02
same,glycan array binding signal (z-score),GalNAc4S6S(b1-4)GlcNAc,0.386
same,glycan array binding signal (z-score),GalNAc6S(b1-4)GlcNAc,0.882
same,glycan array binding signal (z-score),Glc(a1-4)Glc,0.089
same,glycan array binding signal (z-score),[5],-0.263
same,glycan array binding signal (z-score),Glc(a1-6)Glc(a1-6)Glc,-0.805
same,glycan array binding signal (z-score),[6],1.46
same,glycan array binding signal (z-score),Glc(b1-4)Glc,-1.06
same,glycan array binding signal (z-score),Glc(b1-6)Glc,1.15
same,glycan array binding signal (z-score),GlcA(b1-3)Gal,-0.157
same,glycan array binding signal (z-score),GlcA(b1-3)GlcNAc,-0.388
same,glycan array binding signal (z-score),GlcA(b1-6)Gal,0.684
same,glycan array binding signal (z-score),[7],0.209
same,glycan array binding signal (z-score),[8],0.06
same,glycan array binding signal (z-score),[9],0.051
same,glycan array binding signal (z-score),[10],-0.72
same,glycan array binding signal (z-score),[11],-0.085
same,glycan array binding signal (z-score),[12],-0.93
same,glycan array binding signal (z-score),[13],-1.72
same,glycan array binding signal (z-score),[14],0.98
same,glycan array binding signal (z-score),[15],1.22
same,glycan array binding signal (z-score),[16],0.164
same,glycan array binding signal (z-score),[17],-1.59
same,glycan array binding signal (z-score),[18],-1.47
same,glycan array binding signal (z-score),[19],0.185
same,glycan array binding signal (z-score),[20],-0.909
same,glycan array binding signal (z-score),[21],-0.048
same,glycan array binding signal (z-score),[22],0.634
same,glycan array binding signal (z-score),[23],1.47
same,glycan array binding signal (z-score),[24],0.795
same,glycan array binding signal (z-score),[25],-1.09
same,glycan array binding signal (z-score),[26],-0.129
same,glycan array binding signal (z-score),[27],-0.182
same,glycan array binding signal (z-score),[28],-0.033
same,glycan array binding signal (z-score),[29],-1.38
same,glycan array binding signal (z-score),GlcNAc(b1-3)Fuc,1.55
same,glycan array binding signal (z-score),GlcNAc(b1-3)Gal,-1.29
same,glycan array binding signal (z-score),[30],0.202

# Reformatted as tab-separated lines: part of the list above
binder	measurement	setting	value
CM2 (Cordyceps militaris) (protein) MEIAEQNVGKSCAIVNLIPPKEGSNIWTAKQVTIARNLPPNRGTGRHQIDWSFGPVKVTGYVDTTNWEIGVTVSIMGIDLGTVYGNLRDGVVLNVDLFLAKGQVRFYLKNGNEVWVHLSVEIRFDGKFEGDYKIITV	glycan array binding signal (z-score)	[1]	-0.347
same	glycan array binding signal (z-score)	[2]	0.183
